These are yes or no findings as the source states them, for the method shown. Binding seen in cells or lysates may run through a third protein. A yes stands for co-enrichment or nearness to the bait. Other partners may have been found. Where a sequence is shown, tags or fusion partners need not be part of it.
B1: KPAP1 poly(A) polymerase, BirA* ligase fusion (enzyme, UniProt B3FB38 1-527)
chain: MRKFSAFRSGNTGVKRCITLPWKSSLPPKSDSQWEGLGKSVVRMALASDTGRSAFDECSTARQQLETLVQSTGYDASVFAFGGIVVMGLLEVGGDADFVGVADVEPGVAEAGEIVSRLSREMRRLGLKSSALPKARVPVIKVDRVSKSLPGTPLHHLSTCGIFQFTRQMNNNECISFKSRMEENFGAVNTEWSNNQQFSTVEFSSSSALVAALTEVKRHEGVDIPLRLPVDPRNGPELYRLSFDFCFSSVGLRNSYLLSDVLSKYVFSRHLLLLIKRWGRSSGVINSIDGLLASYALTVMCAHFLIKVGVIPKVSTLRSADEPQLLPPFPDYRPLHDGEDCDLAELGFLTAAFFEYYGAVFDYGKNVVCTTNINLLKKTMRWEKSPGTESGRPPFFEFAIKDPYGLDNIGRNLDSEATEYVRSAHSAALATLLQERGDPDFTVNIITKSPPRPARRSRTLASRGIASATYSSDQLEARHLLKKVAFHERRKSMERFGARAARHTEKQRVVSNVAKDVLGWIKCDNHQ
B2: MERS1 pyrophosphohydrolase, BirA* ligase fusion (enzyme, UniProt B6SBM0 1-395)
chain: MRKQLFFTLARPCVAVGRRFISGDNKSIDSSAFISDDDALRGELASALDTEGHALPFDVHLQQPHSSGDGTAGDTSTIQLEKLSHPPARFDLLTNSFVYKWQTKAALARKVSGPMREWAAELKYRTGVHIELEPTYPERLSENAVKGSGSDDGDGTQWGAYETADDVDITVYLFGSERGIFNCHKLMEAAIQQDPVYVRLGIFRRLANSSEVEWLMLRRINRELRPPDIPPISLKLPGKWTLLYERYKEAAIRTLWEETGITVDASNVYPTGHLYQTVPQYYWRVPVRYFVAEVPSDIRVEGPQVVPLQYMRNWDARLLRQSPDPIDRAWAQLADPATGCAWMKASMIDQLQKPLRGDNYMAIRYTPPPYSNLQEVVGLGDGSITPSTGNGEDAS

What was measured:
Test in all cases: proximity labelling; BioID in procyclic T. brucei with C-terminal BirA* fusions; biotinylated proteins purified from mitochondrial fraction; LC-MS/MS; proximity network
[1] = biological target: KPAF5, BirA* ligase fusion (Trypanosoma brucei)
[2] = biological target: RESC13 (RGG2), BirA* ligase fusion (Trypanosoma brucei)
[3] = biological target: RESC5, BirA* ligase fusion (Trypanosoma brucei)

Row | Binder | binding [1] | binding [2] | binding [3]
1 | B1 | binds |  | 
2 | B2 |  | binds | binds

Reference: article PMC7470953
